These are yes or no findings as the source states them, for the method shown. Binding seen in cells or lysates may run through a third protein. A result given as binding can be weak or reduced; the word gives no strength. Sequences can lack the tags named with a protein. One block for each molecule: values may come before it.
Experiments:
Experiment in all cases: co-IP; Drosophila S2 cells co-transfected; lysis in 50 mM Tris-HCl pH 7.4, 150 mM NaCl, 1 mM EDTA, 1% Triton X-100; IP with anti-FLAG and, reciprocally, anti-HA, overnight at 4°C, Protein A/G agarose; western blot
[1] = molecular target: T1, FLAG–Nwk (full-length Drosophila Nervous wreck) (Drosophila) (UniProt X2JAU8)
T1 sequence: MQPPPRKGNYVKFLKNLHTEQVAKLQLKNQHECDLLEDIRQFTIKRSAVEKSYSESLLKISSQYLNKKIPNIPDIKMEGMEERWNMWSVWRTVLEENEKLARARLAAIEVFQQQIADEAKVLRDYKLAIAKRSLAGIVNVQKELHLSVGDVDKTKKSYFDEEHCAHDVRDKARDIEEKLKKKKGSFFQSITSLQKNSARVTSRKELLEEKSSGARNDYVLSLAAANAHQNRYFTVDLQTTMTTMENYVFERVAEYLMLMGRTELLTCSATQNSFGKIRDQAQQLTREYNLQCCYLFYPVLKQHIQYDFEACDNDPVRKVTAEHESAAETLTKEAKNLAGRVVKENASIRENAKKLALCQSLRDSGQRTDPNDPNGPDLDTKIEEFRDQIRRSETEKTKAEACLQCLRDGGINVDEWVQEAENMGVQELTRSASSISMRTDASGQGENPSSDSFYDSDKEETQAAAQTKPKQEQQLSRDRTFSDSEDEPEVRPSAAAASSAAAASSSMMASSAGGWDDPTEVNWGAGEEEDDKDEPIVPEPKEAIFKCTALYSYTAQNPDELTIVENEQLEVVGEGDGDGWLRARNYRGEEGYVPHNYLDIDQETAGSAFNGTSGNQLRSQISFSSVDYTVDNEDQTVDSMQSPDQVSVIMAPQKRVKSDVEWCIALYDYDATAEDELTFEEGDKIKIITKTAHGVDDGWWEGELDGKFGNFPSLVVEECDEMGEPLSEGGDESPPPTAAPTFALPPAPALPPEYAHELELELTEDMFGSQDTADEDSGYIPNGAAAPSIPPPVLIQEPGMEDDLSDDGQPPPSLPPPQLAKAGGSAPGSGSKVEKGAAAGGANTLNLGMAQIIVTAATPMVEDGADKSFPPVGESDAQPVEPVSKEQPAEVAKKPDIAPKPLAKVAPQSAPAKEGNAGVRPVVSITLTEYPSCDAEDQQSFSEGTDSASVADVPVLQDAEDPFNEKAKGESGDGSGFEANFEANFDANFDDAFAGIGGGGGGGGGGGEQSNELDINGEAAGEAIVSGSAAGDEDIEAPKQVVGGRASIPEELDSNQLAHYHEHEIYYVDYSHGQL

By UniProt entry, the sequences of proteins in these tests, tags left out. Where a name states a change or a piece, a line headed by the entry shows the natural chain unless it says otherwise.
UniProt Q7KUD2: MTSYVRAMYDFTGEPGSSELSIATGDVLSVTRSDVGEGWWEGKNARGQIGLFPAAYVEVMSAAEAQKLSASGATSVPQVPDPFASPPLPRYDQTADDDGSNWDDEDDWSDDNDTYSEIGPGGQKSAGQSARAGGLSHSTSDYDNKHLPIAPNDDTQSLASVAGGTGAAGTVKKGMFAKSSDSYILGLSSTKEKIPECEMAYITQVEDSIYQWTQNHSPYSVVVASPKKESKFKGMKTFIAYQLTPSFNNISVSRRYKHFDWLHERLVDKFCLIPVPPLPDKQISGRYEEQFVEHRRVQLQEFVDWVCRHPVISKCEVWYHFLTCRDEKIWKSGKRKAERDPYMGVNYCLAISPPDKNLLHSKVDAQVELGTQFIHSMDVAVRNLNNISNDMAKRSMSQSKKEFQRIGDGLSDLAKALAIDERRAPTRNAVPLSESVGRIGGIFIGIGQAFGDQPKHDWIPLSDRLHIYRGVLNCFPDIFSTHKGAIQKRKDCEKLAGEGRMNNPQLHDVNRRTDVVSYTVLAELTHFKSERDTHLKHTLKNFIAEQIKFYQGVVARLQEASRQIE

[2] = molecular target: T2, FLAG–Nwk-F-BAR (amino acid residues 1–290) (Drosophila) (UniProt X2JAU8)
T2 sequence: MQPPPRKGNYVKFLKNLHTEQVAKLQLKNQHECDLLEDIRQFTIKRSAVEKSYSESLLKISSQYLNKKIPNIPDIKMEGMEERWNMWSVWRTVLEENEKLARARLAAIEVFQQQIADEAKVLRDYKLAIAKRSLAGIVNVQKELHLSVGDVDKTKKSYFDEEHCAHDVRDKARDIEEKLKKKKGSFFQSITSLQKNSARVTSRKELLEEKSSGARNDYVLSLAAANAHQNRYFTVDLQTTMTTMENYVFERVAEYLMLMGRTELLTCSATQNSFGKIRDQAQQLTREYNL

HA–SH3PX1 (Drosophila) = HA–SH3PX1 (Drosophila) (UniProt Q7KUD2)

binding [1]: binds
binding [2]: binds
Molecule: HA–SH3PX1 (from UniProt Q7KUD2)

binding (HA–SH3PX1 (Drosophila)): binds
B1: FLAG–Nwk-F-BAR (amino acid residues 1–290) (domain or fragment, UniProt X2JAU8 1-290)
chain: T2 sequence

binding (HA–SH3PX1 (Drosophila)): binds
B2: FLAG–Nwk (full-length Drosophila Nervous wreck) (protein, UniProt X2JAU8 1-1075)
chain: T1 sequence

— publication PMC4732300
